Drawing on paper PMC8880767, this text covers binding for two molecules.

Amino acid sequences for entries named in this document (tags omitted).
UniProt P39938: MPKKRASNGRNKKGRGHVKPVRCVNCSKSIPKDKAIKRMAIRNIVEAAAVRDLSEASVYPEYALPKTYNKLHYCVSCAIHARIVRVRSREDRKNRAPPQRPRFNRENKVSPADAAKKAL

Experiment [1] concerns the target T1, Tsr2-TAP (S. cerevisiae) (UniProt Q06672).
T1 sequence: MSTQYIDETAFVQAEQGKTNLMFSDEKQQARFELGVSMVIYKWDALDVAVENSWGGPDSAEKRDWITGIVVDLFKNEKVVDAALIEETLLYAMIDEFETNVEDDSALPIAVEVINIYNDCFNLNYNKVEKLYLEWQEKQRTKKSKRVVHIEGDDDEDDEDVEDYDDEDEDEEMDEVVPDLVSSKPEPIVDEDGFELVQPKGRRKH
Nature of the experiment: pull-down; Tsr2-TAP from yeast lysate on IgG sepharose, wash buffer with 500 mM NaCl, TEV elution, Western blot; cells with or without 1 M NaCl.

In experiment [2] the target is T2, Rps3-TAP (Rps3–CBP–protein A) (S. cerevisiae) (UniProt P05750).
T2 sequence: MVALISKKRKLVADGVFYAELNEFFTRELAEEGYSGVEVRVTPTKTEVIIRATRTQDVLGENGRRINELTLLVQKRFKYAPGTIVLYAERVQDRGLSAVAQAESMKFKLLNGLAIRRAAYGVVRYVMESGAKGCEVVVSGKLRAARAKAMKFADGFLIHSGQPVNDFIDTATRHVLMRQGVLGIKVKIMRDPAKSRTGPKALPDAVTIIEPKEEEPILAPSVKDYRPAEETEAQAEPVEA
Nature of the experiment: pull-down; Rps3-TAP (preexisting) ribosomes from yeast lysate on IgG sepharose, ~2 h 4°C; washed with 50 mM tris pH 7.5, 100 mM NaCl, 10 mM MgCl2, 0.075% NP-40; eluted with TEV protease; Western blot; cells with or without 1 M NaCl or 1 M sorbitol, or after 1 h recovery. Background: In western blotting, separated proteins are transferred to a membrane and probed.

No constants are given. Whether binding was seen depends on the method and setting. Binding seen in cells or lysates may run through a third protein. Some results given as binding are weak or reduced against the parent protein; the word gives no strength.

With Rps26-HA (from UniProt P39938 1-119), the binding result in experiment [1] is “binds”.

B1: Rps8 (protein, UniProt P0CX39 1-200)
chain: MGISRDSRHKRSATGAKRAQFRKKRKFELGRQPANTKIGAKRIHSVRTRGGNKKYRALRIETGNFSWASEGISKKTRIAGVVYHPSNNELVRTNTLTKAAIVQIDATPFRQWFEAHYGQTLGKKKNVKEEETVAKSKNAERKWAARAASAKIESSVESQFSAGRLYACISSRPGQSGRCDGYILEGEELAFYLRRLTAKK
Take B1: the binding result in experiment [2] was “binds”.
